PubChem BioAssay AID1259405 | NCATS, 2018

- Purpose: 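Knock-downs that lift recombinant protein yield in hamster ovary cells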 (primary screen)
- System: Chinese hamster CHO-K1 ovary cells with stable secreted eGFP expression
- Reagent: single siRNA against mouse genes, 0.8 pmol siRNA per well (2 µl of 400 nM stock)
- Timing: 3 days
- Detection: 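Per-well intracellular GFP measured by laser scanning cytometry, plus viability from ATP luminescence, each relative to plate median of non-targeting control wells, in %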
- Direction: GFP, % of control: higher = more GFP per well, higher productivity; viability (ATP), % of control: higher = more viable cells (more ATP)
- Active means: 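a knock-down is called active if GFP reaches 120% or more of non-targeting control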
The deposit covers about 50,000 reagents; this is a part drawn at random. Of all reagents, about 4,000 (8%) got an active call. 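Mouse siRNA library applied to hamster cells; one well for each siRNA.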 Reagents against one gene are numbered here.

no.	gene	reagent no.	GFP, % of control	viability (ATP), % of control	activity call
1	Or2q1 (GeneID 258437)	1	39.9	31.3	inactive
2	Or2q1 (GeneID 258437)	2	57.1	61.6	inactive
3	Or2q1 (GeneID 258437)	3	159	88	active
4	Sowahb (GeneID 78088)	1	74.3	67.9	inactive
5	Sowahb (GeneID 78088)	2	70.4	72.9	inactive
6	Sowahb (GeneID 78088)	3	101	125	inactive
7	Galnt2 (GeneID 108148)	1	82.6	89.5	inactive
8	Galnt2 (GeneID 108148)	2	93	135	inactive
9	Galnt2 (GeneID 108148)	3	95.6	132	inactive
10	Klra8 (GeneID 16639)	1	75.3	67.7	inactive
11	Klra8 (GeneID 16639)	2	154	94.5	active
12	Klra8 (GeneID 16639)	3	61.9	65.2	inactive
13	Or10j3 (GeneID 258880)	1	61.4	74.8	inactive
14	Or10j3 (GeneID 258880)	2	111	96.3	inactive
15	Or10j3 (GeneID 258880)	3	55.8	55.8	inactive
16	Loricrin (GeneID 16939)	1	58.1	67.3	inactive
17	Loricrin (GeneID 16939)	2	76.7	60.2	inactive
18	Loricrin (GeneID 16939)	3	92.2	63	inactive
19	Matn2 (GeneID 17181)	1	82.3	125	inactive
20	Matn2 (GeneID 17181)	2	64.2	67.9	inactive
21	Ticam1 (GeneID 106759)	1	121	47.8	active
22	Ticam1 (GeneID 106759)	2	100	68.3	inactive
23	Ticam1 (GeneID 106759)	3	82.1	87.1	inactive
24	Pidd1 (GeneID 57913)	1	53.2	62.9	inactive
25	Pidd1 (GeneID 57913)	2	136	51.6	active
26	Pidd1 (GeneID 57913)	3	138	56	active
27	Pip5k1c (GeneID 18717)	1	53.8	44.2	inactive
28	Doc2b (GeneID 13447)	1	67.4	87.7	inactive
29	Doc2b (GeneID 13447)	2	145	92.2	active
30	Doc2b (GeneID 13447)	3	63.3	89.5	inactive
31	Adgra1 (GeneID 52389)	1	40.3	60.8	inactive
32	Adgra1 (GeneID 52389)	2	60.2	69.5	inactive
33	Adgra1 (GeneID 52389)	3	100	101	inactive
34	Pign (GeneID 27392)	1	111	94.8	inactive
35	Pign (GeneID 27392)	2	62.6	87.1	inactive
36	Pign (GeneID 27392)	3	92.9	139	inactive
37	Vmn1r234 (GeneID 171232)	1	86.1	76.5	inactive
38	Vmn1r234 (GeneID 171232)	2	86.7	106	inactive
39	Vmn1r234 (GeneID 171232)	3	30.2	39.7	inactive
40	Cd1d1 (GeneID 12479)	1	53.8	64.4	inactive
41	Cd1d1 (GeneID 12479)	2	91.8	74.7	inactive
42	Cd1d1 (GeneID 12479)	3	122	106	active
43	Gpatch1 (GeneID 67471)	1	59.4	68.5	inactive
44	Gpatch1 (GeneID 67471)	2	69.2	47.6	inactive
45	Gpatch1 (GeneID 67471)	3	96.5	84.4	inactive
46	Cd248 (GeneID 70445)	1	97.4	93	inactive
47	Cd248 (GeneID 70445)	2	79.7	92.8	inactive
48	Cd248 (GeneID 70445)	3	92	72.8	inactive
49	Clstn3 (GeneID 232370)	1	82.1	62.3	inactive
50	Clstn3 (GeneID 232370)	2	59.4	59.2	inactive
51	Psmg2 (GeneID 107047)	1	81.6	98.1	inactive
52	Psmg2 (GeneID 107047)	2	103	96.3	inactive
53	Psmg2 (GeneID 107047)	3	141	111	active
54	Slc6a13 (GeneID 14412)	1	93.4	68.5	inactive
55	Slc6a13 (GeneID 14412)	2	85.6	64.1	inactive
56	Slc6a13 (GeneID 14412)	3	50.2	62.3	inactive

Targets above whose gene name begins with S or s (6):
gene	reagent no.	GFP, % of control	viability (ATP), % of control	activity call
Sowahb (GeneID 78088)	1	74.3	67.9	inactive
Sowahb (GeneID 78088)	2	70.4	72.9	inactive
Sowahb (GeneID 78088)	3	101	125	inactive
Slc6a13 (GeneID 14412)	1	93.4	68.5	inactive
Slc6a13 (GeneID 14412)	2	85.6	64.1	inactive
Slc6a13 (GeneID 14412)	3	50.2	62.3	inactive

Continued.
no.	gene	reagent no.	GFP, % of control	viability (ATP), % of control	activity call
57	Cmpk2 (GeneID 22169)	1	40.1	49.1	inactive
58	Cmpk2 (GeneID 22169)	2	50.3	57.7	inactive
59	Cmpk2 (GeneID 22169)	3	116	100	inactive
60	Fyttd1 (GeneID 69823)	1	47.5	54.7	inactive
61	Fyttd1 (GeneID 69823)	2	110	96.8	inactive
62	Fyttd1 (GeneID 69823)	3	109	100	inactive
63	Ipo11 (GeneID 76582)	1	68.7	62.7	inactive
64	Ipo11 (GeneID 76582)	2	58.9	84.6	inactive
65	Ipo11 (GeneID 76582)	3	65.9	63.9	inactive
66	Cdk11b (GeneID 12537)	1	155	78	active
67	Cdk11b (GeneID 12537)	2	57.7	27.9	inactive
68	Cdk11b (GeneID 12537)	3	91.9	68.1	inactive
69	Rpap1 (GeneID 68925)	1	30.6	44.1	inactive
70	Rpap1 (GeneID 68925)	2	30.9	52.4	inactive
71	Rpap1 (GeneID 68925)	3	67.4	63.6	inactive
72	Kcnt1 (GeneID 227632)	1	41.9	51.5	inactive
73	Kcnt1 (GeneID 227632)	2	62.5	100	inactive
74	Kcnt1 (GeneID 227632)	3	75	90.5	inactive
75	Vstm4 (GeneID 320736)	1	71	75.5	inactive
76	Vstm4 (GeneID 320736)	2	67.8	58.8	inactive
77	Vstm4 (GeneID 320736)	3	60.8	56.6	inactive
78	Dhcr7 (GeneID 13360)	1	84.1	101	inactive
79	Dhcr7 (GeneID 13360)	2	88	77.8	inactive
80	Dhcr7 (GeneID 13360)	3	90.6	42.5	inactive
81	Adam33 (GeneID 110751)	1	55.5	61.2	inactive
82	Adam33 (GeneID 110751)	2	39.2	66.3	inactive
83	Adam33 (GeneID 110751)	3	101	86.7	inactive
84	Zwilch (GeneID 68014)	1	93.8	81.7	inactive
85	Zwilch (GeneID 68014)	2	51.2	24.3	inactive
86	Zwilch (GeneID 68014)	3	58.9	82.2	inactive
87	A3galt2 (GeneID 215493)	1	57.6	89	inactive
88	A3galt2 (GeneID 215493)	2	76.5	83.1	inactive
89	A3galt2 (GeneID 215493)	3	58.4	67.1	inactive
90	Adap2 (GeneID 216991)	1	101	117	inactive
91	Adap2 (GeneID 216991)	2	70.3	60.7	inactive
92	Adap2 (GeneID 216991)	3	35.6	49.1	inactive
93	Hook3 (GeneID 320191)	1	80.8	91	inactive
94	Hook3 (GeneID 320191)	2	80.9	63.7	inactive
95	Hook3 (GeneID 320191)	3	83.1	66.5	inactive
96	Bclaf1 (GeneID 72567)	1	57.6	56.3	inactive
97	Bclaf1 (GeneID 72567)	2	54.1	71.5	inactive
98	Bclaf1 (GeneID 72567)	3	92.7	130	inactive
99	Mup21 (GeneID 381531)	1	51	56.9	inactive
100	Mup21 (GeneID 381531)	2	72	70.4	inactive
101	Mup21 (GeneID 381531)	3	119	82.5	inactive
102	Tmem161a (GeneID 234371)	1	90.9	76.9	inactive
103	Tmem161a (GeneID 234371)	2	70.9	79.2	inactive
104	Tmem161a (GeneID 234371)	3	83	88.9	inactive
105	Or4c3d (GeneID 57272)	1	105	72	inactive
106	Or4c3d (GeneID 57272)	2	120	70	active
107	Or4c3d (GeneID 57272)	3	56.5	80.1	inactive
